Results deposited as PubChem BioAssay AID652259 (Drosophila RNAi Screening Center, 2013)

Test: 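Knock-downs that push a Wingless-driven reporter up or down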 (primary screen)
Cell system: Drosophila clone 8 imaginal disc epithelial cells
Knock-down reagent: long dsRNA against Drosophila genes
Treatment: pathway stimulated by co-transfected Wingless expression plasmid
Read-out: 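Dual luciferase reads per well after Wingless plasmid stimulation: reporter firefly light and Renilla control light; activity is firefly divided by Renilla, a ratio not deposited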
Reading the numbers: firefly reporter light: higher = more Wg reporter light, before normalisation; Renilla control light: higher = more transfected or surviving cells
Rule for the call: 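a knock-down is a candidate when at least two out of four statistical tests show it departing from its plate mean; one test alone signals a weak candidate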
Meaning of the calls: active = candidate regulator (raises or lowers reporter); inactive = not a candidate
The deposit covers about 22,000 reagents; this is an unselected part of those that have a named target and a result. In the full data, 233 (1.1%) are marked active. 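Light values are raw, unnormalised plate reads; the ratio scores behind the reporter calls were not deposited.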 A number with no mark means an inactive call. The numbers tell different reagents against one gene apart. A plus sign joins genes that one reagent is predicted to hit. The record does not give: the amount of reagent, the time to read-out, the dose of the treatment.

no.	gene	reagent no.	reporter change call, replicate 1	firefly reporter light, replicate 1	firefly reporter light, replicate 2	Renilla control light, replicate 1	Renilla control light, replicate 2
1	ND-B8 (NADH dehydrogenase (ubiquinone) B8 subunit)	1		4329	5719	947	1856
2	Letm1	1		6887		1597	
3	Vha100-3 (Vacuolar H[+] ATPase 100kD subunit 3)	1		14208		11324	
4	7SLRNA:CR42652 + 7SLRNA:CR32864	1		5.89e5	6.22e5	2.39e5	2.85e5
5	Phs (Phaser)	1		5728		2690	
6	ssh (slingshot)	1		17164		11332	
7	CG1428	1		2758	4454	722	2163
8	CG1750	1		2218	7769	970	1952
9	mspo (M-spondin)	1		7314		2491	
10	Ugt37C2 (UDP-glycosyltransferase family 37 member C2)	1		1617	4586	807	2818
11	Uros2 (Uroporphyrinogen III synthase 2)	1		11523		2187	
12	CG4617	1		2426	5841	758	1773
13	Cpr30F (Cuticular protein 30F)	1		12613		2089	
14	CG12483	1		7778		2839	
15	CG33263	1		5244		2602	
16	CG44433	1		8682		3462	
17	CG44433	2		4976		2352	
18	Glg1 (Golgi complex-localized glycoprotein 1)	1		7421		2176	
19	Glg1 (Golgi complex-localized glycoprotein 1)	2		13159		5152	
20	Glg1 (Golgi complex-localized glycoprotein 1)	3		21320		6294	
21	CG10918	1		23911		11893	
22	Rab14	1		6496		1856	
23	CG30486	1		8091		2452	
24	CG15715	1		8920		4122	
25	Smyd5 (SET and MYND domain containing, class 5)	1		19027		4144	
26	Muc11A (Mucin 11A)	1		20905		10310	
27	Nhe2 (Na[+]/H[+] hydrogen exchanger 2)	1		2073	4604	641	2294
28	Nhe2 (Na[+]/H[+] hydrogen exchanger 2)	2		1895	5060	577	2259
29	Taf12L (TBP-associated factor 30kD subunit alpha-2)	1		2807	7648	1239	3483
30	cert (ceramide transfer protein)	1		4272		1668	
31	mnb (minibrain)	1	Wg reporter activity raised	21442		4592	
32	mnb (minibrain)	2		16156		6859	
33	Ance-5	1		16790		3434	
34	MED22 (Mediator complex subunit 22)	1		17130		11671	
35	Lamtor2 + CG30120	1		15821		11996	
36	Lamtor2 + CG30120	2		7837		2852	
37	CG4049	1		3072	5209	573	2180
38	ktub (king tubby)	1		11857		3920	
39	CG7379	1		3419	7882	1818	2636
40	CG10853	1		7940		3109	
41	CG12546	1		14615		3962	
42	TTLL3B (Tubulin tyrosine ligase-like 3B)	1		1665	5190	763	2217
43	run (runt)	1		5699	12464	1703	4565
44	run (runt)	2		7.51e5	7.83e5	3.91e5	2.95e5
45	nero	1		1493	2963	728	1733
46	CG8673	1		2249	7538	842	3880
47	Bruce (BIR repeat containing ubiquitin-conjugating enzyme)	1		7325		1946	
48	CG5861	1		2592	7293	1608	3513
49	CG11980	1		5003		2048	
50	CG11257	1		4809		1885	
51	CG4789	1		19484		7789	
52	CG32795	1		17970		12723	
53	CG32795	2		19350		15097	
54	Glyp (Glycogen phosphorylase)	1		3568		664	

11 successive reagents already listed:
no.	gene	reagent no.	reporter change call, replicate 1	firefly reporter light, replicate 1	firefly reporter light, replicate 2	Renilla control light, replicate 1	Renilla control light, replicate 2
4	7SLRNA:CR42652 + 7SLRNA:CR32864	1		5.89e5	6.22e5	2.39e5	2.85e5
5	Phs (Phaser)	1		5728		2690	
6	ssh (slingshot)	1		17164		11332	
7	CG1428	1		2758	4454	722	2163
8	CG1750	1		2218	7769	970	1952
9	mspo (M-spondin)	1		7314		2491	
10	Ugt37C2 (UDP-glycosyltransferase family 37 member C2)	1		1617	4586	807	2818
11	Uros2 (Uroporphyrinogen III synthase 2)	1		11523		2187	
12	CG4617	1		2426	5841	758	1773
13	Cpr30F (Cuticular protein 30F)	1		12613		2089	
14	CG12483	1		7778		2839	

Further results follow:
no.	gene	reagent no.	reporter change call, replicate 1	firefly reporter light, replicate 1	firefly reporter light, replicate 2	Renilla control light, replicate 1	Renilla control light, replicate 2
55	Lk6 (Lk6 kinase)	1		3196		1722	
56	Lk6 (Lk6 kinase)	2		5880		2787	
57	CG13217	1		8749		4053	
58	CG5969	1		6336		3337	
59	CG8204	1		6507		2604	
60	Gr64b + Gr64c	1		7593		3434	
61	Gr64b + Gr64c	2		5760		2310	
62	CG14315	1		16432		4060	
63	Ndg (Nidogen)	1		9653		2961	
64	Hsp60D (Heat shock protein 60D)	1		2522	6201	932	2037
65	CG8353	1		2973	4970	1074	2736
66	CG6484	1		13034		3509	
67	CG9813	1		7554		3430	
68	CG3588	1		16241		13379	
69	Aef1 (Adult enhancer factor 1)	1		7849		3704	
70	Tsc1	1		5172	4667	1522	1495
71	CG12253	1		7860		2065	
72	ast (asteroid)	1		8562		3808	
73	RpL10Ab (Ribosomal protein L10Ab)	1		5994		2186	
74	CG31142	1		3245		1429	
75	ppk14 (pickpocket 14)	1		2215	10866	181	4346
76	CG31560	1		9004		2246	
77	CG13299	1		1425	10261	1447	3754
78	ect (ectodermal)	1		9776		4070	
79	ect (ectodermal)	2		9936		1842	
80	ect (ectodermal)	3		5.29e5	5.87e5	1.61e5	1.86e5
81	Inx6 (Innexin 6)	1		23466		11224	
82	CG1637	1		3047		795	
83	CG1637	2		1890	5360	746	1808
84	CG1637	3		15328		7440	
85	Arpc3A (Actin-related protein 2/3 complex, subunit 3A)	1		16695		3053	
86	CG16896	1		9737		3497	
87	lncRNA:mimi (mimi)	1		3.25e5	3.50e5	1.68e5	1.44e5
88	CG10866	1		5749		2587	
89	CG34144 (retired record)	1		3971		1137	
90	CG34144 (retired record)	2		14693		11256	
91	CG34144 (retired record)	3		22637		9243	
92	Cht12 (Chitinase 12)	1		12042		6912	
93	KaiR1D (Kainate-type ionotropic glutamate receptor subunit 1D)	1		11704		2549	
